At least one compound was matched to its structure with a doubt left.
Settings: TSK-Gel HA 1000 column, sodium phosphate gradient, pH 6.8

## CN(C)[C@@H]1C(O)=C(C(N)=O)C(=O)[C@@]2(O)C(O)=C3C(=O)c4c(O)cccc4[C@@](C)(O)[C@H]3C[C@@H]12 [tetracycline]
  K′ value (corrected hydroxyapatite retention): 2.0
